Test results as given in the supplement of paper PMC10849652.
The list shows a part of the results.

Amino acid sequences for entries named in this document (tags omitted). A change or cut given only in a name is not applied to a line headed by its entry.
UniProt Q12913: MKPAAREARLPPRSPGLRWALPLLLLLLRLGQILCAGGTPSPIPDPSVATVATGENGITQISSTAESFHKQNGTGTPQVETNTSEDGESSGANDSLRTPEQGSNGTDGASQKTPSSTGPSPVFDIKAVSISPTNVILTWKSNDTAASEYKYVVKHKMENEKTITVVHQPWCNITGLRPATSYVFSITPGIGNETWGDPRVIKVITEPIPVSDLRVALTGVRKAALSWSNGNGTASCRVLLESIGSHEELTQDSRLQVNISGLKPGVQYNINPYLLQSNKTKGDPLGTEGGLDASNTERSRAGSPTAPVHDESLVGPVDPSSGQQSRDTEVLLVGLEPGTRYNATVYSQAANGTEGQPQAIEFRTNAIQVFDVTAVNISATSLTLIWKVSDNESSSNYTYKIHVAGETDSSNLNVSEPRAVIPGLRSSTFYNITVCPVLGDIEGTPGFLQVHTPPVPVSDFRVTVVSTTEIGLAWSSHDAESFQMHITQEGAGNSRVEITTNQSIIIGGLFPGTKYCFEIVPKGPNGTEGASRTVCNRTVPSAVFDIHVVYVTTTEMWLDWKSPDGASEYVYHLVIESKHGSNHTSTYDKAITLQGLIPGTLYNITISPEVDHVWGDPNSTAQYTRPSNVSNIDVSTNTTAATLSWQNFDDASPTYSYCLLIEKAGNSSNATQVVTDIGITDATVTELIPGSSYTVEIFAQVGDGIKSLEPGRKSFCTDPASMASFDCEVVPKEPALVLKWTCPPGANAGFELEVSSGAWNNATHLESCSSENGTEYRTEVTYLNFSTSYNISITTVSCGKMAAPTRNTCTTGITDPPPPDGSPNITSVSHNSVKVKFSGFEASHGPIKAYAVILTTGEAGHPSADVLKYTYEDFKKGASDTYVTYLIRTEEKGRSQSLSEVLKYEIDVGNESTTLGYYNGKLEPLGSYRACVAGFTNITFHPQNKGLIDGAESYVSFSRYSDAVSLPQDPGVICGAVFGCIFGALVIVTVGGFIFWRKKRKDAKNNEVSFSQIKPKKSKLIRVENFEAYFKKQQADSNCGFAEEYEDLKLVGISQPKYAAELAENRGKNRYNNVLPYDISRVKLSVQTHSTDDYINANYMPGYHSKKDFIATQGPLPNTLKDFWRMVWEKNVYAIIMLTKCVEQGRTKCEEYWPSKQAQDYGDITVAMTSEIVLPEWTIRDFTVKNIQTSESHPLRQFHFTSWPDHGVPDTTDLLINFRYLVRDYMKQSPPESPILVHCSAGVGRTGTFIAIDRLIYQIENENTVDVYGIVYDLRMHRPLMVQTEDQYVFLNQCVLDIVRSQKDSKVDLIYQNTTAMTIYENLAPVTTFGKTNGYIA
UniProt P40306: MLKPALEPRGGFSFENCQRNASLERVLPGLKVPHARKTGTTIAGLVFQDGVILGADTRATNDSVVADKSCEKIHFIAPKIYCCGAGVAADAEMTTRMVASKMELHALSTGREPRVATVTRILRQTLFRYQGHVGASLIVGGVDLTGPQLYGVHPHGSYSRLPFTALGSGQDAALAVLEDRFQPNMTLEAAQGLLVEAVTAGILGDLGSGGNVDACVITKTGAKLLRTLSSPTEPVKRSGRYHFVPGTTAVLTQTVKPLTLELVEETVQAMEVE
UniProt P28062: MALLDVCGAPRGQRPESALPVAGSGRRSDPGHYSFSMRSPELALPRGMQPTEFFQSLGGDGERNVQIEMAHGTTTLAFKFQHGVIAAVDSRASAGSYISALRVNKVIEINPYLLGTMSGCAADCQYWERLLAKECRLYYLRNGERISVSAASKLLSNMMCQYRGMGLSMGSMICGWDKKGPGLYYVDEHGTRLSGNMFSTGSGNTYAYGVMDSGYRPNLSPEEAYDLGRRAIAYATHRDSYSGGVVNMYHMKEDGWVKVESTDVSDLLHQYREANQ
UniProt P35236: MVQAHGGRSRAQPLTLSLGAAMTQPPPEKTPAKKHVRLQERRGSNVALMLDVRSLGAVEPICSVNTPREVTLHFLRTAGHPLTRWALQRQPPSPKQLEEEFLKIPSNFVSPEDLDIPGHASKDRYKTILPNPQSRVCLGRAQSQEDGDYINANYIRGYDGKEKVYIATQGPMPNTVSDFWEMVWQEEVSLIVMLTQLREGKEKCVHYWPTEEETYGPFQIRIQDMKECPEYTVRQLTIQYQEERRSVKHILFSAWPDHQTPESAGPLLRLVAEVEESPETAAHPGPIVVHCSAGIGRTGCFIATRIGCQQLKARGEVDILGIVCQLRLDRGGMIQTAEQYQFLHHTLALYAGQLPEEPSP
UniProt P48634: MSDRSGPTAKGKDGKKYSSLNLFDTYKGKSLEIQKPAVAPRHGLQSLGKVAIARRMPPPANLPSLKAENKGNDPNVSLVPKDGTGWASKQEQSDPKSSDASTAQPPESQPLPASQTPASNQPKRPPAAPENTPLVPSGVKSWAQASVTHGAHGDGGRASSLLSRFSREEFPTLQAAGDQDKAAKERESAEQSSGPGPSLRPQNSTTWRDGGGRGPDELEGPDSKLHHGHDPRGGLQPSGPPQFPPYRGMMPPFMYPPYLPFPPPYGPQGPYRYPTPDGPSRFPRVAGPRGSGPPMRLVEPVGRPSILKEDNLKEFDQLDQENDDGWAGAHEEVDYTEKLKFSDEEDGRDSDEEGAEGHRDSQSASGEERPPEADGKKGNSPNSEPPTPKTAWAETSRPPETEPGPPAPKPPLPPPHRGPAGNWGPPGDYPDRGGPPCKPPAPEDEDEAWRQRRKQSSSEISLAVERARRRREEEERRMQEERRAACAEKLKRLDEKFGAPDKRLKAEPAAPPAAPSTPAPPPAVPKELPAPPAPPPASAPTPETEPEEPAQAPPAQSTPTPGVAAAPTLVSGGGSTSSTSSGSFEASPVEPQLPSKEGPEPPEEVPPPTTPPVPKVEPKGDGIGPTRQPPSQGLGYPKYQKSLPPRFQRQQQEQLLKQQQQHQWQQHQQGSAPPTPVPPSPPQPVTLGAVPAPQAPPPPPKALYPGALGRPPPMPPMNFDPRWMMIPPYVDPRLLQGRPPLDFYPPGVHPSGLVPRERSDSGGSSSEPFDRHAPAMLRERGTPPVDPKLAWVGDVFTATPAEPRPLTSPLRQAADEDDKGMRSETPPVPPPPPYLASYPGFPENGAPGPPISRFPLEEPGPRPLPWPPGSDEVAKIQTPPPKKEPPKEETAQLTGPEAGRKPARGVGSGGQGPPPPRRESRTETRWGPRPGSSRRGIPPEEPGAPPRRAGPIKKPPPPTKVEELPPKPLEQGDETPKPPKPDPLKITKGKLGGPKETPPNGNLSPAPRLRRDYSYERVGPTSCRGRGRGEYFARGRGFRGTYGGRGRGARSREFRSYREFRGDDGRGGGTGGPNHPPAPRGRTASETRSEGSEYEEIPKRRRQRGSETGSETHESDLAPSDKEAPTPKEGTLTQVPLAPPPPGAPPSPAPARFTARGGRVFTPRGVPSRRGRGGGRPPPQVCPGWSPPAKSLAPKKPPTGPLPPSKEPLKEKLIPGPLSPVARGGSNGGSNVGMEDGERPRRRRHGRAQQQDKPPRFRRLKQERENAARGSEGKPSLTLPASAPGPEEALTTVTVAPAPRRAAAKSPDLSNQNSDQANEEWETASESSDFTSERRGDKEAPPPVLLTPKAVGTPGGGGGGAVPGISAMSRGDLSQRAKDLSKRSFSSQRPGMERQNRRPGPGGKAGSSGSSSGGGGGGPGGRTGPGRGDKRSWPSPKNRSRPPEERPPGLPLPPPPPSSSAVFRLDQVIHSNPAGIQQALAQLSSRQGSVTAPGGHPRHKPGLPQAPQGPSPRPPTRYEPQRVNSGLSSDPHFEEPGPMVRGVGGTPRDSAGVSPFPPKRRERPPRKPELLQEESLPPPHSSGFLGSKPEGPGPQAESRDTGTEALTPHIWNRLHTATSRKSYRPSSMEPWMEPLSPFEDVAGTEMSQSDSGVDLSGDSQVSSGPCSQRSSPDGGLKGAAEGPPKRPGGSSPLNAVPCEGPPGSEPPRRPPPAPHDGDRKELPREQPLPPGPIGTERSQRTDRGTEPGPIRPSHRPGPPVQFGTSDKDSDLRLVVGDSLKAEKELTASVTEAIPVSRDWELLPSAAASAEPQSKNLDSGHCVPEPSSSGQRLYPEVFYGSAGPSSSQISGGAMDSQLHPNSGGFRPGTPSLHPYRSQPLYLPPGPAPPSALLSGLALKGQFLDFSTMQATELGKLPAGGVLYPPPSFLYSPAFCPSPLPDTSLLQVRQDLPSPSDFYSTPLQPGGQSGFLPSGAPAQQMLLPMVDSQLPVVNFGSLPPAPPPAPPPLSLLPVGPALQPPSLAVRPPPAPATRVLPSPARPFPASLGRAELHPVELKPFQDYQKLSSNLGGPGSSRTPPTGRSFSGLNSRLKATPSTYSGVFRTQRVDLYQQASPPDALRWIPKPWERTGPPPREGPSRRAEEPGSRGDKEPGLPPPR
UniProt Q9Y6M0: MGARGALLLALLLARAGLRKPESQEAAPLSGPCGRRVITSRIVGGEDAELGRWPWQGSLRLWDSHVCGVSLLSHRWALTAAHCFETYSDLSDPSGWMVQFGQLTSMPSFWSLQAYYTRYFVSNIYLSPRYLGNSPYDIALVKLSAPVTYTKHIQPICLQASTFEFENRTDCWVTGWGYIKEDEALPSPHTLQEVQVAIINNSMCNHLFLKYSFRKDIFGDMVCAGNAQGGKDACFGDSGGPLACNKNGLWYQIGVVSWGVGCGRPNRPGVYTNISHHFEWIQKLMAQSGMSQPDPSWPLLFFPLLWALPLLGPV
UniProt P49720: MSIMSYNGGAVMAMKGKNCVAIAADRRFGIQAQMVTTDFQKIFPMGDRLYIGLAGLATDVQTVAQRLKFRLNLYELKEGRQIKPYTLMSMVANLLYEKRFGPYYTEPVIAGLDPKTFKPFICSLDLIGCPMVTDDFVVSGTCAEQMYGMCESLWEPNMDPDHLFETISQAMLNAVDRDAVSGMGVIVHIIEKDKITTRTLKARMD
UniProt Q9UNM6: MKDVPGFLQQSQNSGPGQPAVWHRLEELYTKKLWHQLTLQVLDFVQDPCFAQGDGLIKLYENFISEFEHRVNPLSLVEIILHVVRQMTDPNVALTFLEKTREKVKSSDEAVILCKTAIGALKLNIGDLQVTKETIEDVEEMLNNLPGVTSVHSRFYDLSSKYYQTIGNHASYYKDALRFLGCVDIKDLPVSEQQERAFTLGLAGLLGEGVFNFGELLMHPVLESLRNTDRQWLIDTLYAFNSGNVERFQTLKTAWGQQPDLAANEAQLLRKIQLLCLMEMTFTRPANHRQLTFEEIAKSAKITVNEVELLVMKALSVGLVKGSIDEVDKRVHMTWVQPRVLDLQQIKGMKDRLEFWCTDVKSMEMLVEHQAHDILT
UniProt P61289: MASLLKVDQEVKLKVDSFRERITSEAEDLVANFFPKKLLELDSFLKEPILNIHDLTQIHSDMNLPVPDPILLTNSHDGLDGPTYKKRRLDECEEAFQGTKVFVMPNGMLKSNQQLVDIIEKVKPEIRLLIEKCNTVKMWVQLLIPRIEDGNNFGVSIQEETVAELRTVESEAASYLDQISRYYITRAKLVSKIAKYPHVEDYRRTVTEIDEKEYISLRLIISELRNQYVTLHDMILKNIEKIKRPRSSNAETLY
UniProt P20962: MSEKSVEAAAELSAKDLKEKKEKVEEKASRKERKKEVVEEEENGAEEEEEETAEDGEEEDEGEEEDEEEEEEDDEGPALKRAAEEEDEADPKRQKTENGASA
UniProt O95758: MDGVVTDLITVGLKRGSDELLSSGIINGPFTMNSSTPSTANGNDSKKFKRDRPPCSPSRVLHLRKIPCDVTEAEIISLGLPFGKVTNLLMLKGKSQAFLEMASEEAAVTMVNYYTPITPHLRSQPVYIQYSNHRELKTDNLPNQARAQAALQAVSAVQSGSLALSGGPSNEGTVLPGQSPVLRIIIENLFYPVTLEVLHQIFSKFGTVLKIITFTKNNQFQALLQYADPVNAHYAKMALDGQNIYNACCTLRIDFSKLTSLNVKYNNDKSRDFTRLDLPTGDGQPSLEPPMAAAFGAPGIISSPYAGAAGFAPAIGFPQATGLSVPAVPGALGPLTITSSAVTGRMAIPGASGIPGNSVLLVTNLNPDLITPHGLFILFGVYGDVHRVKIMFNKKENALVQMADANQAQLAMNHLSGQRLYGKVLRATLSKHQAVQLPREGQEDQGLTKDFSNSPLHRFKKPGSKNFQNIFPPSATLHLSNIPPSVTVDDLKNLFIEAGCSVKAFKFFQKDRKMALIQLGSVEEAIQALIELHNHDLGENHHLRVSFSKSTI
UniProt Q86Y79: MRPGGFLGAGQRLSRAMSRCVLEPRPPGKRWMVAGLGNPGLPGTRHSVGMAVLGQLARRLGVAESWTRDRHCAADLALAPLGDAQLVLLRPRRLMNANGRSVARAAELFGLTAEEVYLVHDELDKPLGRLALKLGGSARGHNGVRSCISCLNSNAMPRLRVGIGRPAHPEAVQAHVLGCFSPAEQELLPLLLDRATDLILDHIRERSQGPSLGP
UniProt Q16378: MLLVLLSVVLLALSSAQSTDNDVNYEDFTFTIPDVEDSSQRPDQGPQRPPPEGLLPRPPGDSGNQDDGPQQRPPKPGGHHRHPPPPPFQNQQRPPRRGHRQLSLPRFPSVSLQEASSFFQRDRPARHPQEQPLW

The targets below were run with Cc1ccc(-n2nc(C(C)(C)C)cc2NC(=O)Nc2ccc(OCCN3CCOCC3)c3ccccc23)cc1 [doramapimod] (assay: log2 fold change, soluble protein after heating vs DMSO (PISA); higher = thermal stabilisation; K562 lysate, 10 uM; active = over 0.2 and 3.5 SD of the protein, either way, in both replicates (recomputed)).
Method in brief: (§1)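 Pellets of K562 cells were dounce-homogenised in PBS pH 7.4 with 1 mM MgCl2, and the crude extract was held at 1 mg/mL protein for a 30 min treatment with 10 μM compound. Aliquots were heated for 3 min over 48°C-58°C and pooled before NP-40 was added to 0.5% at 4°C. The supernatant from 21,000xg for 90 min was quantified by TMTpro 16plex LC-MS/MS with channel sums equalised. Values are reported from duplicates as log-two fold change in thermal stability relative to solvent controls.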

Target | log2 fold change
PTOV1 (UniProt Q86YD1) | inactive: 0.075
PTPRJ (UniProt Q12913) | inactive: -0.242
PSMB10 (UniProt P40306) | inactive: -0.013
PSMB8 (UniProt P28062) | inactive: 0.011
PSIP1 (UniProt V9GYT7) | inactive: 0.036
PSEN2 (UniProt P49810) | inactive: -0.083
PTPN7 isoform 3 (UniProt P35236) | inactive: 0.007
PRRC2A (UniProt P48634) | inactive: -0.073
PSMA7 (UniProt H0Y586) | inactive: 0.089

What follows are targets tested with Cc1ccc(NC(=O)c2ccc(CN3CC[C@H](N(C)C)C3)c(C(F)(F)F)c2)cc1Nc1nccc(-c2cncnc2)n1 [bafetinib] in the same assay as above.
Method in brief: as §1

Target | log2 fold change
PRSS21 (UniProt Q9Y6M0) | inactive: 0.045
PSMB3 (UniProt P49720) | inactive: 0.036
PTPA isoform 2 (UniProt Q15257) | inactive: -0.003
PSMD13 (UniProt Q9UNM6) | inactive: -0.022
PTEN isoform 2 (UniProt P60484) | inactive: -0.008
PTK2 (UniProt Q05397) | inactive: -0.008
PSME3 isoform 2 (UniProt P61289) | inactive: 0.015
PSME2 (UniProt Q9UL46) | inactive: 0.001
PUM2 (UniProt Q8TB72) | inactive: 0.034
PRXL2A (UniProt Q9BRX8) | inactive: -0.22
PSMB2, A0A087WVV1 | inactive: -0.304
PRPH isoform 2 (UniProt P41219) | inactive: 0.025
PTMS (UniProt P20962) | inactive: -0.044
PTBP3 isoform 4 (UniProt O95758) | inactive: -0.003
PTCD3 (UniProt Q96EY7) | inactive: -0.008
PSMD4 (UniProt Q5VWC4) | inactive: -0.04
PRR12 (UniProt Q9ULL5) | inactive: -0.333
PRR14L (UniProt Q5THK1) | inactive: 0
PUF60 isoform 2 (UniProt Q9UHX1) | inactive: -0.006
PSMD14 (UniProt O00487) | inactive: 0.021
PRSS50 (UniProt Q9UI38) | inactive: 0
PTPRJ (UniProt Q12913) | inactive: 0.112
PSMB10 (UniProt P40306) | inactive: 0.025
PSMB8 (UniProt P28062) | inactive: 0.116
PSIP1 (UniProt V9GYT7) | inactive: -0.09
PSEN2 (UniProt P49810) | inactive: -0.171
PTPN7 isoform 3 (UniProt P35236) | inactive: 0.036
PRRC2A (UniProt P48634) | inactive: 0.031
PSMA7 (UniProt H0Y586) | inactive: -0.141

The targets below were run with Cc1cccc(CC(=O)N2CCc3c2ccc(-c2cn(C)c4ncnc(N)c24)c3F)n1 in the same assay as above.
Method in brief: as §1

Target | log2 fold change
PTRH1 (UniProt Q86Y79) | inactive: 0.337
PRSS21 (UniProt Q9Y6M0) | inactive: 0.062
PSMB3 (UniProt P49720) | inactive: 0.036
PTPA isoform 2 (UniProt Q15257) | inactive: 0.015
PSMD13 (UniProt Q9UNM6) | inactive: -0.002
PSMF1 (UniProt Q5QPM7) | inactive: -0.014
PTPRF (UniProt P10586) | inactive: 0.081
PTEN isoform 2 (UniProt P60484) | inactive: -0.004
PRSS8 (UniProt Q16651) | inactive: -0.074
PTK2 (UniProt Q05397) | inactive: -0.117
PSME3 isoform 2 (UniProt P61289) | inactive: -0.035
PSME2 (UniProt Q9UL46) | inactive: 0.105
PUM2 (UniProt Q8TB72) | inactive: -0.016
PRXL2A (UniProt Q9BRX8) | inactive: -0.111
PSMB2, A0A087WVV1 | inactive: 0.239
PRPH isoform 2 (UniProt P41219) | inactive: 0.001
PTMS (UniProt P20962) | inactive: -0.056
PTBP3 isoform 4 (UniProt O95758) | inactive: 0.012

Target | log2 fold change
PTCD3 (UniProt Q96EY7) | inactive: -0.068
PRR4 (UniProt Q16378) | inactive: 0.252
PSMD4 (UniProt Q5VWC4) | inactive: 0.11
PRR12 (UniProt Q9ULL5) | inactive: 0.132
PRR14L (UniProt Q5THK1) | inactive: -0.224
PUF60 isoform 2 (UniProt Q9UHX1) | inactive: -0.09
PSMD14 (UniProt O00487) | inactive: 0.001
PRSS50 (UniProt Q9UI38) | inactive: 0.056
PTOV1 (UniProt Q86YD1) | inactive: -0.016
PTPRJ (UniProt Q12913) | inactive: -0.014
PSMB10 (UniProt P40306) | inactive: -0.032
PWWP2B (UniProt Q6NUJ5) | inactive: 0.23
PSMB8 (UniProt P28062) | inactive: -0.023
PSIP1 (UniProt V9GYT7) | inactive: 0.222
PSEN2 (UniProt P49810) | inactive: 0.18
PTPN7 isoform 3 (UniProt P35236) | inactive: 0.115
PRRC2A (UniProt P48634) | inactive: -0.058
PSMA7 (UniProt H0Y586) | inactive: -0.141
